At least one compound was matched to its structure with a doubt left.
Experiments:
GSH = assay: Detection of GSH in cells (GSH/GSSG-Glo, GSH-Glo); format: cell-based, human; conditions: 40 or 50 μM APR-246, 1.25 μM erastin; 24 hrs
[1] = test system: diffuse-type gastric cancer PDCs; assay: Cell viability of diffuse-type gastric cancer PDCs; format: cell-based, human; conditions: treatment for 6 days

## CCOc1ccccc1-n1c(C(C)N2CCN(C(=O)COc3ccc(Cl)cc3)CC2)nc2ccccc2c1=O (centres unmarked) [erastin]
GSH
  GSH levels (GSH/GSSG) in gastric cancer PDCs: markedly decreased GSH levels in ARID1A-deficient PDCs and not in ARID1A-proficient PDCs
[1]
  IC50 values in ARID1A-deficient versus ARID1A-proficient PDCs: markedly lower in ARID1A-deficient PDCs than in ARID1A-proficient PDCs

— patent publication US20220087987A1, “A METHOD FOR TREATING SWI/SNF COMPLEX-DEFICIENT CANCERS COMPRISING GLUTATHIONE (GSH) METABOLIC PATHWAY INHIBITOR” (National Cancer Center, priority 2018, published 2022)
